Record: PubChem BioAssay AID1508588 (Peter MacCallum Cancer Centre, 2020)
Test: 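Genome-wide search for knock-downs that heighten vemurafenib action in melanoma cells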 (primary screen). System: human WM266.4 melanoma cells (BRAF V600 mutant). Knock-down reagent: siRNA pool against human genes, 40 nM. Duration: 96 h from transfection to read-out. Treatment: vemurafenib 300 nM (about IC25), added 48 h after transfection, for 48 h; comparison arm got DMSO vehicle only. Measured: 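Cell gain (DAPI nuclei at end minus before drug, mean of two replicates) and medium lactate by absorbance per cell, both as ratio to non-targeting siRNA, also grouped into fold-change classes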. Scale: cell gain with vemurafenib: higher = more cell gain than with non-targeting siRNA; lactate per cell with vemurafenib: higher = more lactate made per cell. Active means: 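a knock-down counts as enhancing when its fold-change classes with vehicle and with vemurafenib, taken together, show a stronger drug effect on cell gain or lactate per cell; exact class pairs not stated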. Calls: active = enhances vemurafenib effect; inactive = no enhancement seen.
This is one part, drawn at random, of about 18,000 reagents. In the full data, 790 (4.4%) got an active call. 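Calls rest on a combination of fold-change classes in drug and vehicle arms, not all shown here.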

MAPRE3: cell gain with vemurafenib = 0.68; lactate per cell with vemurafenib = 0.64; Outcome = inactive
PCSK9: cell gain with vemurafenib = 0.86; lactate per cell with vemurafenib = 1.26; Outcome = inactive
COL16A1: cell gain with vemurafenib = 0.53; lactate per cell with vemurafenib = -0.2; Outcome = inactive
OR9A2: cell gain with vemurafenib = 0.58; lactate per cell with vemurafenib = 1.12; Outcome = inactive
FER1L5: cell gain with vemurafenib = 0.7; lactate per cell with vemurafenib = 1.67; Outcome = inactive
TNFRSF4: cell gain with vemurafenib = 0.75; lactate per cell with vemurafenib = 0.97; Outcome = inactive
LPCAT4: cell gain with vemurafenib = 0.81; lactate per cell with vemurafenib = 1.64; Outcome = inactive
ZNF480: cell gain with vemurafenib = 1.01; lactate per cell with vemurafenib = 0.39; Outcome = inactive
CAMK1G: cell gain with vemurafenib = 0.92; lactate per cell with vemurafenib = 0.52; Outcome = inactive
HCAR3: cell gain with vemurafenib = 0.8; lactate per cell with vemurafenib = 0.5; Outcome = inactive
ELOVL3: cell gain with vemurafenib = 0.92; lactate per cell with vemurafenib = 0.61; Outcome = inactive
CACNG3: cell gain with vemurafenib = 0.93; lactate per cell with vemurafenib = 0.71; Outcome = inactive
TOE1: cell gain with vemurafenib = 0.27; lactate per cell with vemurafenib = 2.38; Outcome = inactive
ALOX5AP: cell gain with vemurafenib = 1.19; lactate per cell with vemurafenib = 0.62; Outcome = inactive
PELI2: cell gain with vemurafenib = 0.94; lactate per cell with vemurafenib = 0.83; Outcome = inactive
THTPA: cell gain with vemurafenib = 0.53; lactate per cell with vemurafenib = 0.22; Outcome = inactive
TOMM20L: cell gain with vemurafenib = 0.56; lactate per cell with vemurafenib = 0.72; Outcome = inactive
NEXN: cell gain with vemurafenib = 0.05; lactate per cell with vemurafenib = 2.2; Outcome = inactive
AFM: cell gain with vemurafenib = 0.49; lactate per cell with vemurafenib = 0.49; Outcome = active
MRPS25: cell gain with vemurafenib = 0.14; lactate per cell with vemurafenib = 1.54; Outcome = inactive
CCDC91: cell gain with vemurafenib = 1.21; lactate per cell with vemurafenib = 0.72; Outcome = inactive
TBX2: cell gain with vemurafenib = 0.7; lactate per cell with vemurafenib = 0.9; Outcome = inactive
ZNF202: cell gain with vemurafenib = 0.18; lactate per cell with vemurafenib = 0.96; Outcome = inactive
SNHG29: cell gain with vemurafenib = 0.41; lactate per cell with vemurafenib = 0.63; Outcome = inactive
MRGPRX3: cell gain with vemurafenib = 0.85; lactate per cell with vemurafenib = 1.06; Outcome = inactive
CD2AP: cell gain with vemurafenib = 0.55; lactate per cell with vemurafenib = 0.46; Outcome = active
HIP1R: cell gain with vemurafenib = 0.93; lactate per cell with vemurafenib = 0.91; Outcome = inactive
ZNF786: cell gain with vemurafenib = 0.51; lactate per cell with vemurafenib = 0.56; Outcome = inactive
DNAJC7: cell gain with vemurafenib = 0.98; lactate per cell with vemurafenib = 0.46; Outcome = inactive
ANGPTL4: cell gain with vemurafenib = 0.7; lactate per cell with vemurafenib = 0.99; Outcome = inactive
RTN4R: cell gain with vemurafenib = 0.84; lactate per cell with vemurafenib = 1.66; Outcome = inactive
MEAF6: cell gain with vemurafenib = 0.93; lactate per cell with vemurafenib = 0.56; Outcome = inactive
FRMD1: cell gain with vemurafenib = 0.37; lactate per cell with vemurafenib = 1.86; Outcome = inactive
NARS1: cell gain with vemurafenib = 0.54; lactate per cell with vemurafenib = 1.03; Outcome = inactive
EPHA7: cell gain with vemurafenib = 0.44; lactate per cell with vemurafenib = 1.4; Outcome = inactive
VANGL1: cell gain with vemurafenib = 0.55; lactate per cell with vemurafenib = 0.58; Outcome = inactive
PLXNB3: cell gain with vemurafenib = 0.78; lactate per cell with vemurafenib = 0.32; Outcome = inactive
MXI1: cell gain with vemurafenib = 0.76; lactate per cell with vemurafenib = 1.17; Outcome = inactive
CYB5D2: cell gain with vemurafenib = 0.92; lactate per cell with vemurafenib = 0.71; Outcome = inactive
SYNJ1: cell gain with vemurafenib = 0.81; lactate per cell with vemurafenib = 0.58; Outcome = inactive
